Measurements as given in PubChem BioAssay AID504467 (National Center for Advancing Translational Sciences (NCATS), 2011).
Hit rate of the full screen: of about 330,000 compounds, about 7,700 (2.3%) were called active. Inconclusive means that the source gave no clear call. Such entries were picked first, then a sample of the others. The call rests on the fitted dose curve; in most records, active means well fitted inhibition curve with a large enough effect; inconclusive means small, poorly fitted or top-dose-only effect, or effect the other way; inactive means flat fitted curve, though single readings scatter. Potencies beside an inconclusive call are fits to weak or partial responses and may not hold up.

Experiment: qHTS screen for small molecules that inhibit ELG1-dependent DNA repair in human embryonic kidney (HEK293T) cells expressing luciferase-tagged ELG1; further: nearly all actives have a fitted effect of over 55% in size
Settings: HEK293T ELG1-luciferase reporter, luminescence, 16 h, DNA damage induced by 5-fluorouridine; activity change, negative = inhibition: at 46.1 µM (top of the series)
Method in brief: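 Quantitative HTS, concentration-response format. 2,000 cells/well co-treated with 5-fluorouridine and compound, 16 hr in 5% CO2 at 37 °C; ONE-Glo luminescence read after 30 min.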
On the % scale 0 is the no-effect control and ±100 the full control effect; potency means the concentration at half of the fitted maximal effect.

Compound | Potency | activity change, negative = inhibition
CN(C(=O)c1cccc(NC(=O)Cc2ccc([N+](=O)[O-])cc2)c1)C1CC1 | inconclusive: 23.1 µM [inhibitor, partial curve, poor fit] | 
COc1ccc(NC(=O)C2C3CC/C=C\CCC32)cc1 (centres undefined) | inconclusive: 13 µM [activator, partial curve] | 
CCN(CC)c1nc(Nc2ccccc2)nc(Oc2ccc(=O)[nH]n2)n1 | inconclusive: 7.31 µM [inhibitor, partial curve] | 
O=[N+]([O-])c1ccc(N/N=C\c2cccn2-c2ccccc2)nc1 |  | inactive: 0.783%
Cc1ccc(C(=O)C[n+]2ccccc2)cc1 |  | inactive: -0.265%
O=C(CCCc1ccccc1)Nc1cccnc1 | inconclusive: 18.4 µM [activator, partial curve] | 
CCOc1ccc(NC(=S)c2ccc3ccccc3n2)cc1 | inconclusive: 7.3 µM [activator, partial curve, poor fit] | 
CCN(CC)Cc1c(O)ccc2cc(-c3nc4ccccc4n3C)c(=O)oc12 | inconclusive: 20.6 µM [activator, partial curve] | 
Cc1nnc(NC(=O)CSc2ccccc2N)s1 | inconclusive: 0.116 µM [activator, full curve] | 
CC(NC(=O)c1ccc2ccccc2n1)c1ccccc1 (centres undefined) |  | inactive: 5.51%
CCNc1nc(NC(C)C)nc(N(C#N)CCOc2ccc(Cl)cc2Cl)n1 | inconclusive: 16.4 µM [inhibitor, single point] | 
COc1ccc(NS(=O)(=O)c2cccc(NC(=O)CCS(=O)(=O)c3ccccc3)c2)cc1 | inconclusive: 29.1 µM [inhibitor, single point] | 
CCOc1ccc(OCc2ccc(C(=O)O)o2)cc1 | inconclusive: 0.517 µM [activator, full curve] | 
COc1ccc(-n2cc(-c3ccccc3)c3c(NN4CCOCC4)ncnc32)cc1 | inconclusive: 29.1 µM [inhibitor, single point] | 
Cc1ccc(S(=O)(=O)NCCC(=O)N2CCN(c3ccccc3)CC2)cc1C | inconclusive: 25.9 µM [inhibitor, partial curve] | 
CC(C)c1ncc(S(=O)(=O)c2ccc(C(F)(F)F)cn2)c(N)n1 |  | inactive: 5.98%
OCc1c[nH]c2ccccc12 |  | inactive: 16.2%
CC(C)(NS(=O)(=O)OCC(Cl)(Cl)Cl)c1ccccc1 |  | inactive: 7.14%
CCOC(=O)CON1C(=O)C(=O)N(OCC(=O)OCC)[C@H]2CCCC[C@H]21 |  | inactive: -4.35%
COCc1cc(C)nc2sc(C(=O)N3CCN(c4ccccc4)CC3)c(N)c12 | inconclusive: 29.1 µM [inhibitor, single point] | 
COc1ccc(S(=O)(=O)N2CCN(c3c(C)cccc3C)CC2)cc1OC | inconclusive: 29.1 µM [inhibitor, single point] | 
CC1(CC(=O)N/N=C/c2cc([N+](=O)[O-])c(O)cc2O)OCCO1 | inconclusive: 29.1 µM [inhibitor, partial curve, poor fit] | 
O=C(Nc1ccccc1F)c1ccc(OCc2ccccc2)cc1 | inconclusive: 18.4 µM [activator, partial curve] | 

Quoted at random: 2 entries already listed, in no set order.
Compound | Potency | activity change, negative = inhibition
CC(NC(=O)c1ccc2ccccc2n1)c1ccccc1 (centres undefined) |  | inactive: 5.51%
CC1(CC(=O)N/N=C/c2cc([N+](=O)[O-])c(O)cc2O)OCCO1 | inconclusive: 29.1 µM [inhibitor, partial curve, poor fit] | 

The list goes on:

Compound | Potency | activity change, negative = inhibition
CCCCCCN1CC(=O)N2[C@@H](Cc3c([nH]c4ccccc34)C2(C)C)C1=O | inconclusive: 5.8 µM [inhibitor, partial curve] | 
Cn1ccc2cc(-c3ccc4ncnc(NCc5cccs5)c4c3)ccc21 | inconclusive: 5.8 µM [inhibitor, partial curve] | 
COc1cccc(OCC(=O)Nc2ccccc2C(N)=O)c1 | inconclusive: 6.51 µM [activator, partial curve] | 
O=c1ccc2[n+]([O-])c3ccc(O)cc3oc-2c1 | inconclusive: 16.4 µM [inhibitor, single point] | 
CCC[C@H](CN[C@@H](CNC)[C@H](C)CC)NCCc1cc(C(F)(F)F)cc(C(F)(F)F)c1 | active: 20.6 µM | 
O=C(O)C1C2CCC(C2)C1C(=O)NCCc1cccc(Cl)c1 (centres undefined) |  | inactive: 6.32%
O=c1ccnc(NCCc2ccccc2)[nH]1 | inconclusive: 25.9 µM [activator, single point] | 
C/C(=N\NC(=S)Nc1cccc(C)c1)c1ccccc1 | inconclusive: 35.5 µM [activator, single point] | 
Cc1c(NS(=O)(=O)c2ccc(NC(=O)CCC(=O)O)cc2)c(=O)n(-c2ccccc2)n1C |  | inactive: 0.34%
O=C(N/N=C/c1ccccc1O)C1(O)c2ccccc2-c2ccccc21 | inconclusive: 13 µM [inhibitor, partial curve, poor fit] | 
Cc1nc(SCc2nc3ccc(Cl)cc3[nH]2)c2oc3ccccc3c2n1 | inconclusive: 23.1 µM [inhibitor, single point] | 
COc1ccc(NC(C)C(=O)N/N=C/c2c(O)ccc3ccccc23)cc1 (centres undefined) | inconclusive: 3.26 µM [inhibitor, partial curve] | 
CC(=O)N1CCN(c2ccc(NC(=O)c3ccc([N+](=O)[O-])cc3)cc2)CC1 | inconclusive: 8.2 µM [inhibitor, partial curve] | 
CC(C)C[C@H](NC(=O)N1CCCCCC1)C(=O)O |  | inactive: 0%
CCOc1ccc(-c2cn(CCC#N)cn2)cc1 | inconclusive: 25.9 µM [activator, single point] | 
CCC(=O)N(C)CCc1cc2c(c(OC)c1/C=N/NC(=O)c1ccc(Br)cc1)OCO2 | inconclusive: 14.6 µM [inhibitor, partial curve, poor fit] | 
Cc1onc(-c2ccccc2)c1C(=O)OCCOc1ccc([N+](=O)[O-])cc1[N+](=O)[O-] | active: 14.6 µM | 
S=C(Nc1ccc2c(c1)OCO2)N1CCCC1 | inconclusive: 18.3 µM [activator, single point] | 
O=C(COC(=O)c1cccc(S(=O)(=O)N2CCOCC2)c1)NCc1ccccc1 | inconclusive: 29.1 µM [activator, single point] | 
CCOc1ccc(S(=O)(=O)NCc2csc(C)n2)cc1 |  | inactive: 0.274%
CC1(C)Cc2c(sc(NC(=O)/C=C/C(=O)O)c2C#N)CO1 |  | inactive: -4.98%
Cc1cc(C)cc(C(=O)NCC(=O)NCCc2c[nH]c3ccccc23)c1 |  | inactive: 6.11%
COc1cc(OC)cc(C(=O)/C=C2\Sc3ccccc3N2C)c1 | inconclusive: 10.3 µM [activator, partial curve, poor fit] | 

Compound | Potency | activity change, negative = inhibition
CCC(=O)Nc1cc(C(=O)OCC(=O)c2ccccc2Cl)ccc1C | inconclusive: 35.5 µM [activator, single point] | 
O=C(Nc1c(Cl)ccc2nsnc12)c1ccc([N+](=O)[O-])o1 | inconclusive: 29.1 µM [inhibitor, single point] | 
CC(=O)c1cnc2nc(SCc3ccccc3C)nn2c1C | inconclusive: 16.4 µM [activator, partial curve] | 
Cc1cccc(C)c1NC(=S)N1CCC(c2ccccc2)C1 (centres undefined) |  | inactive: -12.4%
N#Cc1ccc(S(=O)(=O)NC[C@H]2O[C@@H](n3cnc4c(N)ncnc43)[C@H](O)[C@@H]2O)cc1 | inconclusive: 32.6 µM [activator, partial curve, poor fit] | 
COc1ccc(CCNC(=O)[C@@H](NC(=O)N2CCn3c2nc2ccccc23)C(C)C)cc1OC |  | inactive: -22.1%
O=C(Cc1ccccc1)Nc1ncnc2c1C(c1ccccc1)c1c(ccc3ccccc13)O2 (centres undefined) | inconclusive: 23.1 µM [inhibitor, partial curve, poor fit] | 
Cc1ccccc1C(=O)NNC(=O)C1CCN(C(=O)Nc2ccccc2)CC1 | inconclusive: 18.3 µM [activator, partial curve] | 
CC1=C(C(=O)Nc2cc(-c3cccc(F)c3)[nH]n2)C2(CCCCC2)OC1=O |  | inactive: -3.15%
C/C(=C\c1ccccc1)C(=O)n1nnc2ccccc21 | inconclusive: 32.6 µM [activator, partial curve, poor fit] | 
O=C(CSc1nc(=O)n2ccccc2n1)N1CCC(Cc2ccccc2)CC1 | inconclusive: 28.2 µM [inhibitor, single point] | 
Oc1ccc(Br)cc1/C=N/N1CCCCC1 | inconclusive: 16.4 µM [activator, partial curve] | 
CCCC(=O)Nc1nc(C)c(-c2csc(Nc3ccc(Cl)cc3)n2)s1 | inconclusive: 16.4 µM [inhibitor, partial curve] | 
CS(=O)(=O)Nc1cccc(C2=NN(S(=O)(=O)c3ccc(F)cc3)C(c3cccs3)C2)c1 (centres undefined) | inconclusive: 18.4 µM [inhibitor, partial curve, poor fit] | 
COc1cccc(-c2nn(-c3ccccc3)cc2CN(C)Cc2ccon2)c1 | inconclusive: 20.6 µM [inhibitor, single point] | 
Cc1sc2nc3c(C(=O)N4CCCC4)cc(C(=O)c4ccccc4O)cn3c(=O)c2c1C | inconclusive: 23.1 µM [inhibitor, single point] | 
COc1cc(-c2csc(NC3CCCCC3)n2)cc(OC)c1OC | inconclusive: 18.3 µM [inhibitor, partial curve] | 
CCN(CC(=O)Nc1sc2c(c1C#N)CCC(C)C2)CC(=O)NC1CCS(=O)(=O)C1 (centres undefined) | active: 18.3 µM | 
CC1C/C(=N\NC(=S)NCc2ccccc2)CC(C)(C)C1 (centres undefined) |  | inactive: -14.3%
CCNC(=S)N1CCc2cc(OC)c(OC)cc2C1COc1ccc(F)cc1 (centres undefined) | inconclusive: 16.4 µM [inhibitor, partial curve, poor fit] | 
COc1ccccc1NC(=O)Nc1ccc(C)cn1 | inconclusive: 18.3 µM [activator, single point] | 
CNC(=S)N1CCc2sccc2C1C (centres undefined) | inconclusive: 2.31 µM [activator, full curve, poor fit] | 
Cc1cc(C)c(C(=O)OCc2csc(CC(=O)Nc3ccccc3C)n2)c(C)c1 | inconclusive: 20.6 µM [inhibitor, single point] | 

Given in markdown: entries from further up.

| Compound | Potency | activity change, negative = inhibition |
| --- | --- | --- |
| CC(=O)c1cnc2nc(SCc3ccccc3C)nn2c1C | inconclusive: 16.4 µM [activator, partial curve] |  |
| Cc1cc(C)c(C(=O)OCc2csc(CC(=O)Nc3ccccc3C)n2)c(C)c1 | inconclusive: 20.6 µM [inhibitor, single point] |  |
